Experimental findings from article PMC10891344 are described below.

Protein sequences, listed by entry. Tags and fused reporters are not part of them.
UniProt O94992: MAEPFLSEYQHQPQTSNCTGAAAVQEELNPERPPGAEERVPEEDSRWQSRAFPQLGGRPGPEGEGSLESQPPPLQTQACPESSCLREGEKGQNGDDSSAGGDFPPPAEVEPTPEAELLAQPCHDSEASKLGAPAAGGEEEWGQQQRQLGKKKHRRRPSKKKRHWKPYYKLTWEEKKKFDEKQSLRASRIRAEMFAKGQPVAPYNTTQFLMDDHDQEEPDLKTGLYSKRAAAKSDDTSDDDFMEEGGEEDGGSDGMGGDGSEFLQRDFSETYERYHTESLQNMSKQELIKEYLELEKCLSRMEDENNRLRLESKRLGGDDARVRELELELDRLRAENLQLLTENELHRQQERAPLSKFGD

The experiment addresses HEXIM1, endogenous in HeLa (human (endogenous in HeLa)) (UniProt O94992). Put plainly: co-IP; P-TEFb release assay: 7SK snRNP from HeLa whole cell extract immobilised with HEXIM1 antibody on Protein G Dynabeads; RNAse A or actin added as release agent; blot with Cdk9 and HEXIM1 antibodies.

No constants are given. Whether binding was seen depends on the method and setting. Binding seen in cells or lysates may run through a third protein. Some entries that bind do so weakly or less than the wild type.

Take “Cdk9, endogenous in HeLa (P-TEFb in 7SK snRNP) (from UniProt P50750 1-372) (enzyme)”: the binding entry is “binds”.
